At least one compound was matched to its structure with a doubt left.
Test system: rat brain striatum (tissue water diffusion)
Assay: Diffusion weighted MRI: apparent diffusion coefficient (ADC) of tissue water in striatum
Type: in vivo
Conditions: Ro 46-2005 i.v. pre-treatment + 1.5 μg rrTNF-α intrastriatal, 24 h
Method: Adult male Wistar rats (Harlan-Olac, UK) were anaesthetised with fentanyl/fluanisone and midazolam (0.68 ml/kg of each). Using a 50 μm-tipped glass pipette, 1 μl rat recombinant TNF-α (NIBSC, Potters Bar, UK) solution was injected stereotaxically 1 mm anterior and 3 mm lateral to Bregma, at a depth of 4 mm into the left striatum. Animals were injected with either 0.3 μg/μl or 1.5 μg/μl of TNF-A, each in 0.1% BSA in low-endotoxin saline, or with vehicle solution only. Animals were positioned in the MRI probe (3.4 cm i.d. Alderman-Grant resonator) using a bite-bar. During MRI, anaesthesia was maintained with 0.8-1.2% halothane in 50% N2O/50% O2, ECG was monitored non-invasively and body temperature was maintained at […]. All procedures were approved by the United Kingdom Home Office.
Magnetic resonance images were acquired using a 300 MHz Varian Inova spectrometer (Varian, Palo Alto, Calif.). […] Diffusion gradients were applied separately along three orthogonal axes and apparent diffusion coefficient (ADC) “trace” maps were calculated^40. […]
Regions of Interest (ROI) encompassing the striatum were defined on T2-weighted images in each hemisphere, and applied to all images or calculated data maps for quantitation. For the rCBV maps and T2-weighted images the data are expressed as a ratio of injected/non-injected striatal values. […]

For COc1cccc(Oc2c(NS(=O)(=O)c3ccc(C(C)(C)C)cc3)ncnc2OCCO)c1 [Ro 46-2005], the “Apparent Diffusion Coefficient, Left (treated) striatum” value was 6.72^b ± 0.25 ×10^−4 mm^2/sec.
